Experimental data taken from PubChem BioAssay AID248 (DTP/NCI, 2004).
The list does not hold the whole screen: it gathers tests that were run many times, whatever their T/C, doses with no T/C, and many T/C values between a quarter and a half above the control. Further doses and runs are listed elsewhere. T/C is the treated group as % of the vehicle group. Some entries give survivors of the animals treated and no T/C: the source holds a T/C of zero for them, seemingly a mark for toxic or unscored doses. Some survivor counts are full or nearly so, which does not show that the dose was tolerated: the source hardly ever lists a survival T/C far under the control, and the zero likely stands for such cases as well. Counts of survivors are from the toxicity check (mostly the fifth day) where no day follows; animals may have died later. Schedule codes are those of the source, taken here to give the interval after Q, in days (D) or hours (H), and the number of doses after X. Some molecules as drawn cover several salts, stereoisomers or complexes of the source; a dose is that of the sample tested. Some doses were run more than once; the results are listed from low to high. Some schedule codes hold Z or #, which are not explained here. Where survival is the endpoint, the PubChem record calls one and a half times the control and up active, and a quarter to a half above the control has no call in these data; cut-offs in other NCI protocols can differ. Some T/C values are followed by the survivors on the day toxicity was checked, most often the fifth; without a count, all were alive then.

Test system: L1210 leukemia ip in BDF1 mice, survival T/C
Test: NCI In Vivo Anticancer Drug Screen. Data for tumor model L1210 Leukemia (intraperitoneal) in B6D2F1 (BDF1) mice
Conditions: higher T/C = longer survival
[1] = T/C endpoint: mean survival time, dose: 60.0 mg/kg/injection, schedule: Q01DX Z (ip), vehicle: methylcellulose (MC)
[2] = T/C endpoint: mean survival time, dose: 400.0 mg/kg/injection, schedule: Q04DX003 (ip), vehicle: saline
[3] = T/C endpoint: mean survival time, dose: 400.0 mg/kg/injection, schedule: Q04DX003 (ip), vehicle: Klucel (hydroxypropylcellulose) (HPC)
[4] = T/C endpoint: mean survival time, dose: 150.0 mg/kg/injection, schedule: Q01DX001 (ip), vehicle: saline
[5] = T/C endpoint: mean survival time, dose: 320.0 mg/kg/injection, schedule: Q01DX009 (ip), vehicle: saline
[6] = T/C endpoint: mean survival time, dose: 400.0 mg/kg/injection, schedule: Q01DX001 (ip), vehicle: saline

## CC1(C)CN1P(=O)(OCCc1ccccc1)N1CC1(C)C (centres undefined)
T/C endpoint: mean survival time, dose: 100.0 mg/kg/injection, schedule: Q04DX002 (ip), vehicle: saline
  survivor count: 1 of 3
T/C endpoint: mean survival time, dose: 200.0 mg/kg/injection, schedule: Q04DX002 (ip), vehicle: saline
  survivor count: 0 of 3
T/C endpoint: mean survival time, dose: 400.0 mg/kg/injection, schedule: Q04DX002 (ip), vehicle: saline
  survivor count: 0 of 3

## Nc1nc(C=O)c(-c2cccc3ccccc23)c(=O)[nH]1
T/C endpoint: mean survival time, dose: 400.0 mg/kg/injection, schedule: Q01DX009 (ip), vehicle: saline with Tween-80
  survivor count: 0 of 6

## COc1cc(C)c(Cl)c(C)c1C#CC(=O)O
T/C endpoint: mean survival time, dose: 300.0 mg/kg/injection, schedule: Q01DX009 (ip), vehicle: Klucel (hydroxypropylcellulose) (HPC)
  survivor count: 0 of 6

## O=C(Nc1ccc(C2=NCCN2)cc1)c1ccc(C(=O)Nc2ccc(C3=NCCN3)cc2)c2ccccc12
T/C endpoint: mean survival time, dose: 15.0 mg/kg/injection, schedule: Q01DX Z (ip), vehicle: methylcellulose (MC)
  T/C: 125 % of control
[1]
  T/C: 139 % of control
  survivor count: 2 of 6
T/C endpoint: mean survival time, dose: 120.0 mg/kg/injection, schedule: Q01DX Z (ip), vehicle: methylcellulose (MC)
  survivor count: 0 of 6

## CCCCCCCCCCCCCCCC(O)S(=O)(=O)O (centres undefined)
T/C endpoint: mean survival time, dose: 400.0 mg/kg/injection, schedule: Q04DX003 (ip), vehicle: saline with Tween-80
  survivor count: 6 of 6

## CNCC(=O)Nc1ccc(NC(=O)CNC)cc1
T/C endpoint: mean survival time, dose: 400.0 mg/kg/injection, schedule: Q04DX002 (ip), vehicle: Klucel (hydroxypropylcellulose) (HPC)
  survivor count: 0 of 3

## CCN(CC)CCCOC(=O)c1ccc(N)cc1
T/C endpoint: mean survival time, dose: 100.0 mg/kg/injection, schedule: Q04DX003 (ip), vehicle: saline
  survivor count: 4 of 6
T/C endpoint: mean survival time, dose: 200.0 mg/kg/injection, schedule: Q04DX003 (ip), vehicle: saline
  survivor count: 0 of 6
[2]
  survivor count: 0 of 6

## C[n+]1c(/C=C/c2ccc3c(c2)OCO3)ccc2ccccc21
T/C endpoint: mean survival time, dose: 50.0 mg/kg/injection, schedule: Q01DX009 (ip), vehicle: saline with Tween-80
  T/C: 126 % of control [5 of 6 alive]
T/C endpoint: mean survival time, dose: 75.0 mg/kg/injection, schedule: Q01DX009 (ip), vehicle: gum acacia
  survivor count: 3 of 6
T/C endpoint: mean survival time, dose: 100.0 mg/kg/injection, schedule: Q01DX009 (ip), vehicle: saline with Tween-80
  survivor count: 0 of 6
T/C endpoint: mean survival time, dose: 200.0 mg/kg/injection, schedule: Q04DX003 (ip), vehicle: Klucel (hydroxypropylcellulose) (HPC)
  survivor count: 1 of 6
[3]
  survivor count: 0 of 6

## NC(=NCc1ccccc1)c1ccc(N=C(N)c2ccc(C(N)=Nc3ccc(C(N)=NCc4ccccc4)cc3)cc2)cc1
T/C endpoint: mean survival time, dose: 9.0 mg/kg/injection, schedule: Q01DX015 (ip), vehicle: water
  T/C: 134 % of control
T/C endpoint: mean survival time, dose: 12.5 mg/kg/injection, schedule: Q01DX015 (ip), vehicle: water
  T/C: 145 % of control
T/C endpoint: mean survival time, dose: 31.0 mg/kg/injection, schedule: Q01DX001 (ip), vehicle: water
  survivor count: 3 of 6
T/C endpoint: mean survival time, dose: 37.5 mg/kg/injection, schedule: Q01DX015 (ip), vehicle: water
  survivor count: 0 of 6
T/C endpoint: mean survival time, dose: 50.0 mg/kg/injection, schedule: Q01DX009 (ip), vehicle: saline
  survivor count: 0 of 6
T/C endpoint: mean survival time, dose: 50.0 mg/kg/injection, schedule: Q01DX015 (ip), vehicle: water
  survivor count: 0 of 6
T/C endpoint: mean survival time, dose: 62.0 mg/kg/injection, schedule: Q01DX001 (ip), vehicle: water
  survivor count: 0 of 6
T/C endpoint: mean survival time, dose: 100.0 mg/kg/injection, schedule: Q01DX015 (ip), vehicle: water
  survivor count: 0 of 6
T/C endpoint: mean survival time, dose: 125.0 mg/kg/injection, schedule: Q01DX001 (ip), vehicle: water
  survivor count: 0 of 6
T/C endpoint: mean survival time, dose: 250.0 mg/kg/injection, schedule: Q01DX001 (ip), vehicle: water
  survivor count: 0 of 6

## Fc1cc(F)c(CCl)c(F)c1
T/C endpoint: mean survival time, dose: 400.0 mg/kg/injection, schedule: Q01DX009 (ip), vehicle: acetone
  survivor count: 0 of 6

## CC1(C)N=C(N)N=C(N)N1c1cccc(OCCCOc2ccccc2)c1
T/C endpoint: mean survival time, dose: 100.0 mg/kg/injection, schedule: Q01DX001 (ip), vehicle: Klucel (hydroxypropylcellulose) (HPC)
  survivor count: 2 of 6
T/C endpoint: mean survival time, dose: 400.0 mg/kg/injection, schedule: Q01DX001 (ip), vehicle: Klucel (hydroxypropylcellulose) (HPC)
  survivor count: 2 of 6

## CCC[N+](C)(C)CC
[4]
  survivor count: 2 of 6

## CSc1ccc(NC(=O)Nc2cccc(Cl)c2C)cc1
T/C endpoint: mean survival time, dose: 200.0 mg/kg/injection, schedule: Q04DX003 (ip), vehicle: saline with Tween-80
  survivor count: 6 of 6

## NC(=Nc1ccccc1)c1ccc(C(N)=Nc2ccccc2)cc1
T/C endpoint: mean survival time, dose: 120.0 mg/kg/injection, schedule: Q01DX Z (ip), vehicle: carboxymethylcellulose (CMC)
  survivor count: 0 of 6

## COC(=O)C1CC2c3[nH]c4ccccc4c3CCN2C1 (centres undefined)
[3]
  survivor count: 6 of 6

## C/C(=N\N=C(N)N)c1ccc(NC(=O)Nc2ccc(/C(C)=N/N=C(N)N)cc2)cc1
T/C endpoint: mean survival time, dose: 18.0 mg/kg/injection, schedule: Q01DX009 (ip), vehicle: carboxymethylcellulose (CMC)
  T/C: 136 % of control
T/C endpoint: mean survival time, dose: 20.0 mg/kg/injection, schedule: Q01DX009 (ip), vehicle: saline
  T/C: 123, 124, 132, 135 % of control
T/C endpoint: mean survival time, dose: 40.0 mg/kg/injection, schedule: Q01DX009 (ip), vehicle: saline
  T/C: 86, 108, 135, 151 % of control
T/C endpoint: mean survival time, dose: 63.0 mg/kg/injection, schedule: Q01DX015 (ip), vehicle: saline
  T/C: 145 % of control
T/C endpoint: mean survival time, dose: 80.0 mg/kg/injection, schedule: Q01DX009 (ip), vehicle: saline
  T/C: 184, 190, 197, 209 % of control
T/C endpoint: mean survival time, dose: 108.0 mg/kg/injection, schedule: Q01DX009 (ip), vehicle: water
  survivor count: 3 of 10
T/C endpoint: mean survival time, dose: 160.0 mg/kg/injection, schedule: Q01DX009 (ip), vehicle: saline
  T/C: 143, 151, 152, 234 % of control
T/C endpoint: mean survival time, dose: 178.0 mg/kg/injection, schedule: Q01DX001 (ip), vehicle: other
  T/C: 140 % of control
T/C endpoint: mean survival time, dose: 178.0 mg/kg/injection, schedule: Q01DX001 (ip), vehicle: saline
  T/C: 141 % of control
T/C endpoint: mean survival time, dose: 180.0 mg/kg/injection, schedule: Q01DX009 (ip), vehicle: water
  survivor count: 5 of 10
T/C endpoint: mean survival time, dose: 267.0 mg/kg/injection, schedule: Q01DX001 (ip), vehicle: other
  T/C: 142 % of control
T/C endpoint: mean survival time, dose: 267.0 mg/kg/injection, schedule: Q01DX001 (ip), vehicle: saline
  T/C: 127 % of control
T/C endpoint: mean survival time, dose: 300.0 mg/kg/injection, schedule: Q01DX009 (ip), vehicle: water
  survivor count: 1 of 10
T/C endpoint: mean survival time, dose: 300.0 mg/kg/injection, schedule: Q01DX015 (ip), vehicle: saline
  survivor count: 2 of 6
T/C endpoint: mean survival time, dose: 320.0 mg/kg/injection, schedule: Q01DX005 (ip), vehicle: saline
  survivor count: 2 of 6
[5]
  T/C: 87 [4 of 6 alive] and 148 % of control [4 of 6 alive]
  survivor count: 4 of 6 and 5 of 6
[6]
  T/C: 138 % of control
T/C endpoint: mean survival time, dose: 600.0 mg/kg/injection, schedule: Q01DX001 (ip), vehicle: saline
  T/C: 148 % of control
T/C endpoint: median survival time, dose: 25.0 mg/kg/injection, schedule: Q01DX009 (ip), vehicle: saline
  T/C: 135 and 137 % of control
T/C endpoint: median survival time, dose: 45.0 mg/kg/injection, schedule: Q03HX024 (ip), vehicle: water, evaluated on day 6
  T/C: 146 % of control
T/C endpoint: median survival time, dose: 45.0 mg/kg/injection, schedule: Q03HX024 (ip), vehicle: water, evaluated on day 50
  T/C: 146 % of control
T/C endpoint: median survival time, dose: 50.0 mg/kg/injection, schedule: Q01DX009 (ip), vehicle: saline
  T/C: 140 % of control

## O=C1c2ccccc2-c2ncccc21
[3]
  survivor count: 6 of 6

## CNC(=O)n1cncn1
[2]
  survivor count: 3 of 6

## CN=C(NC)c1cccc(NC(=O)c2cccc(C(=O)Nc3cccc(C(=NC)NC)c3)c2)c1
T/C endpoint: mean survival time, dose: 33.0 mg/kg/injection, schedule: Q01DX Z (ip), vehicle: carboxymethylcellulose (CMC)
  survivor count: 0 of 6
T/C endpoint: mean survival time, dose: 50.0 mg/kg/injection, schedule: Q01DX Z (ip), vehicle: carboxymethylcellulose (CMC)
  survivor count: 0 of 6

## CN(C)S(=O)(=O)c1ccc(NC(=O)C(Cl)(Cl)Cl)cc1
T/C endpoint: mean survival time, dose: 400.0 mg/kg/injection, schedule: Q01DX009 (ip), vehicle: Klucel (hydroxypropylcellulose) (HPC)
  survivor count: 6 of 6

## COc1ccc(-c2cnc(=O)[nH]c2N)cc1
[3]
  survivor count: 2 of 6

## c1ccc2nc(NN=C3CCCCC3)ccc2c1
T/C endpoint: mean survival time, dose: 75.0 mg/kg/injection, schedule: Q01DX001 (ip), vehicle: saline
  survivor count: 2 of 6
[4]
  survivor count: 0 of 6
T/C endpoint: mean survival time, dose: 300.0 mg/kg/injection, schedule: Q01DX001 (ip), vehicle: saline
  survivor count: 0 of 6

## O=C(O)/C=C/C(=O)Nc1ccc2c(c1)Cc1cc(NC(=O)C(F)(F)F)ccc1-2
[6]
  survivor count: 4 of 6
